Source: the supplement of paper PMC8728848
This is one part of the list.

Tests used:
Assay in all cases: glycan array binding signal (z-score within array); higher = stronger binding
Settings in all cases: glycan notation: IUPAC condensed, linker removed
[1] = target: Fuc(a1-2)[GalNAc(a1-3)]Gal(b1-3)GlcNAc(b1-6)GalNAc
Procedure, shortened: (§1)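 Arrays were curated from the Consortium for Functional Glycomics database, 3228 in total, and kept only where the protein sequence was available. Binding is expressed as a within-array Z-score. This score was averaged across arrays of the same protein sequence at different concentrations or buffers and across linkers, and negative values can be read as non-binding.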

[2] = target: Fuc(a1-2)[GalNAc(a1-3)]Gal(b1-4)Glc
Procedure, shortened: as §1

[3] = target: Fuc(a1-2)[GalNAc(a1-3)]Gal(b1-4)GlcNAc
Procedure, shortened: as §1

[4] = target: Fuc(a1-2)[GalNAc(a1-3)]Gal(b1-4)GlcNAc(b1-2)Man
Procedure, shortened: as §1

[5] = target: Fuc(a1-2)[GalNAc(a1-3)]Gal(b1-4)GlcNAc(b1-2)Man(a1-3)[Fuc(a1-2)[GalNAc(a1-3)]Gal(b1-4)GlcNAc(b1-2)Man(a1-6)]Man(b1-4)GlcNAc(b1-4)GlcNAc
Procedure, shortened: as §1

[6] = target: Fuc(a1-2)[GalNAc(a1-3)]Gal(b1-4)GlcNAc(b1-2)Man(a1-3)[Fuc(a1-2)[GalNAc(a1-3)]Gal(b1-4)GlcNAc(b1-2)Man(a1-6)]Man(b1-4)GlcNAc(b1-4)[Fuc(a1-6)]GlcNAc
Procedure, shortened: as §1

[7] = target: Fuc(a1-2)[GalNAc(a1-3)]Gal(b1-4)GlcNAc(b1-3)Gal(b1-4)GlcNAc
Procedure, shortened: as §1

[8] = target: Fuc(a1-2)[GalNAc(a1-3)]Gal(b1-4)GlcNAc(b1-3)Gal(b1-4)GlcNAc(b1-3)Gal(b1-4)GlcNAc
Procedure, shortened: as §1

[9] = target: Fuc(a1-2)[GalNAc(a1-3)]Gal(b1-4)GlcNAc(b1-3)GalNAc
Procedure, shortened: as §1

[10] = target: Fuc(a1-2)[GalNAc(a1-3)]Gal(b1-4)GlcNAc(b1-3)[Fuc(a1-2)[GalNAc(a1-3)]Gal(b1-4)GlcNAc(b1-6)]GalNAc
Procedure, shortened: as §1

[11] = target: Fuc(a1-2)[GalNAc(a1-3)]Gal(b1-4)GlcNAc(b1-6)GalNAc
Procedure, shortened: as §1

[12] = target: Fuc(a1-2)[GalNAc(a1-3)]Gal(b1-4)[Fuc(a1-3)]GlcNAc
Procedure, shortened: as §1

[13] = target: Fuc(a1-2)[GalNAc(a1-3)]Gal(b1-4)[Fuc(a1-3)]GlcNAc(b1-3)GalNAc
Procedure, shortened: as §1

[14] = target: Fuc(a1-2)[GalNAc(a1-4)]Gal(b1-4)GlcNAc
Procedure, shortened: as §1

[15] = target: Fuc(a1-2)[GalNAc(b1-3)]Gal
Procedure, shortened: as §1

[16] = target: Fuc(a1-3)GlcNAc
Procedure, shortened: as §1

[17] = target: Fuc(a1-3)[Gal(b1-4)]Glc6S
Procedure, shortened: as §1

[18] = target: Fuc(a1-3)[Gal(b1-4)]GlcNAc
Procedure, shortened: as §1

[19] = target: Fuc(a1-3)[Gal(b1-4)]GlcNAc(b1-2)Man
Procedure, shortened: as §1

[20] = target: Fuc(a1-3)[Gal(b1-4)]GlcNAc(b1-2)Man(a1-3)[Fuc(a1-3)[Gal(b1-4)]GlcNAc(b1-2)Man(a1-6)]Man(b1-4)GlcNAc(b1-4)GlcNAc
Procedure, shortened: as §1

[21] = target: Fuc(a1-3)[Gal(b1-4)]GlcNAc(b1-2)Man(a1-3)[Fuc(a1-3)[Gal(b1-4)]GlcNAc(b1-2)Man(a1-6)]Man(b1-4)GlcNAc(b1-4)[Fuc(a1-6)]GlcNAc
Procedure, shortened: as §1

[22] = target: Fuc(a1-3)[Gal(b1-4)]GlcNAc(b1-3)Gal(b1-3)[Fuc(a1-4)]GlcNAc
Procedure, shortened: as §1

[23] = target: Fuc(a1-3)[Gal(b1-4)]GlcNAc(b1-3)Gal(b1-4)[Fuc(a1-3)]GlcNAc
Procedure, shortened: as §1

[24] = target: Fuc(a1-3)[Gal(b1-4)]GlcNAc(b1-3)Gal(b1-4)[Fuc(a1-3)]GlcNAc(b1-3)Gal(b1-4)[Fuc(a1-3)]GlcNAc
Procedure, shortened: as §1

[25] = target: Fuc(a1-3)[Gal(b1-4)]GlcNAc(b1-3)GalNAc
Procedure, shortened: as §1

[26] = target: Fuc(a1-3)[Gal(b1-4)]GlcNAc(b1-6)GalNAc
Procedure, shortened: as §1

[27] = target: Fuc(a1-3)[Gal(b1-4)]GlcNAc(b1-6)[Gal(b1-3)GlcNAc(b1-3)]Gal(b1-4)Glc
Procedure, shortened: as §1

[28] = target: Fuc(a1-3)[Gal(b1-4)]GlcNAc6S
Procedure, shortened: as §1

[29] = target: Fuc(a1-3)[Gal3S(b1-4)]Glc
Procedure, shortened: as §1

[30] = target: Fuc(a1-3)[Gal3S(b1-4)]GlcNAc
Procedure, shortened: as §1

[31] = target: Fuc(a1-3)[Gal3S(b1-4)]GlcNAc6S
Procedure, shortened: as §1

[32] = target: Fuc(a1-3)[GalNAc(b1-4)]GlcNAc
Procedure, shortened: as §1

[33] = target: Fuc(a1-3)[GalNAc(b1-4)]GlcNAc6S
Procedure, shortened: as §1

[34] = target: Fuc(a1-4)GlcNAc
Procedure, shortened: as §1

[35] = target: Fuc(b1-3)GlcNAc
Procedure, shortened: as §1

[36] = target: Gal(a1-2)Gal
Procedure, shortened: as §1

[37] = target: Gal(a1-3)Gal
Procedure, shortened: as §1

[38] = target: Gal(a1-3)Gal(b1-3)GlcNAc
Procedure, shortened: as §1

[39] = target: Gal(a1-3)Gal(b1-3)GlcNAc(b1-2)Man
Procedure, shortened: as §1

[40] = target: Gal(a1-3)Gal(b1-3)GlcNAc(b1-2)Man(a1-3)[Gal(a1-3)Gal(b1-3)GlcNAc(b1-2)Man(a1-6)]Man(b1-4)GlcNAc(b1-4)GlcNAc
Procedure, shortened: as §1

[41] = target: Gal(a1-3)Gal(b1-3)GlcNAc(b1-3)GalNAc
Procedure, shortened: as §1

[42] = target: Gal(a1-3)Gal(b1-3)GlcNAc(b1-6)GalNAc
Procedure, shortened: as §1

[43] = target: Gal(a1-3)Gal(b1-3)[Fuc(a1-4)]GlcNAc(b1-2)Man(a1-3)[Gal(a1-3)Gal(b1-3)[Fuc(a1-4)]GlcNAc(b1-2)Man(a1-6)]Man(b1-4)GlcNAc(b1-4)GlcNAc
Procedure, shortened: as §1

[44] = target: Gal(a1-3)Gal(b1-4)Glc
Procedure, shortened: as §1

[45] = target: Gal(a1-3)Gal(b1-4)GlcNAc
Procedure, shortened: as §1

B1: Langerin K299A/K313A (Homo sapiens), Q9UJ71 (protein)
chain: STLNAQIPELKSDLEKASALNTKIRALQGSLENMSKLLKRQNDILQVVSQGWKYFKGNFYYFSLIPKTWYSAEQFCVSRNSHLTSVTSESEQEFLYKTAGGLIYWIGLTKAGMEGDWSWVDDTPFNKVQSARFWIPGEPNNAGNNEHCGNIAAPSLQAWNDAPCDATFLFICKRPYVPSEP
glycan array binding signal (z-score) [1]: 2.49 | glycan array binding signal (z-score) [2]: -1.41 | glycan array binding signal (z-score) [3]: -0.86 | glycan array binding signal (z-score) [4]: -0.409 | glycan array binding signal (z-score) [5]: -0.652 | glycan array binding signal (z-score) [6]: 1.5 | glycan array binding signal (z-score) [7]: 0.057 | glycan array binding signal (z-score) [8]: 0.722 | glycan array binding signal (z-score) [9]: -0.452 | glycan array binding signal (z-score) [10]: -0.161 | glycan array binding signal (z-score) [11]: -0.086 | glycan array binding signal (z-score) [12]: 1.42 | glycan array binding signal (z-score) [13]: 1.92 | glycan array binding signal (z-score) [14]: -0.441 | glycan array binding signal (z-score) [15]: 0.699 | glycan array binding signal (z-score) [16]: 0.179 | glycan array binding signal (z-score) [17]: 3.28 | glycan array binding signal (z-score) [18]: 0.053 | glycan array binding signal (z-score) [19]: -0.163 | glycan array binding signal (z-score) [20]: 0.222 | glycan array binding signal (z-score) [21]: 1.2 | glycan array binding signal (z-score) [22]: 0.313 | glycan array binding signal (z-score) [23]: 0.842 | glycan array binding signal (z-score) [24]: -0.771 | glycan array binding signal (z-score) [25]: -0.202 | glycan array binding signal (z-score) [26]: 1.03 | glycan array binding signal (z-score) [27]: -0.799 | glycan array binding signal (z-score) [28]: 0.335 | glycan array binding signal (z-score) [29]: 1.5 | glycan array binding signal (z-score) [30]: 0.013 | glycan array binding signal (z-score) [31]: 1.77 | glycan array binding signal (z-score) [32]: -0.249 | glycan array binding signal (z-score) [33]: 0.023 | glycan array binding signal (z-score) [34]: -0.653 | glycan array binding signal (z-score) [35]: -0.751 | glycan array binding signal (z-score) [36]: -0.423 | glycan array binding signal (z-score) [37]: -0.327 | glycan array binding signal (z-score) [38]: -0.746 | glycan array binding signal (z-score) [39]: 0.178 | glycan array binding signal (z-score) [40]: 1.22 | glycan array binding signal (z-score) [41]: 0.251 | glycan array binding signal (z-score) [42]: 0.359 | glycan array binding signal (z-score) [43]: 2.12 | glycan array binding signal (z-score) [44]: -0.264 | glycan array binding signal (z-score) [45]: 0.282
